# About 1,500 (0.58%) of roughly 260,000 compounds were called active. Inconclusive means that the source gave no clear call. Such entries were picked first, then a sample of the others.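 Rule for the calls: active = inhibition above a set limit at one or more doses, reproduced on every date tested; inconclusive = results disagree between test dates, or hit never tested in dose response; inactive = the rest.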
# Amino acid sequences for entries named in this document (tags omitted). A change or cut given only in a name is not applied to a line headed by its entry.
# UniProt P69720: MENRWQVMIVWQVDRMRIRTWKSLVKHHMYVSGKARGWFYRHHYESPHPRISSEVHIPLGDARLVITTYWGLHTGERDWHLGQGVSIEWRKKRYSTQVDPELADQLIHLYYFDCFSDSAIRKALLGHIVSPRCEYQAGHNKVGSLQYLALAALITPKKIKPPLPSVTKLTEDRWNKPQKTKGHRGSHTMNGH
# UniProt P69721: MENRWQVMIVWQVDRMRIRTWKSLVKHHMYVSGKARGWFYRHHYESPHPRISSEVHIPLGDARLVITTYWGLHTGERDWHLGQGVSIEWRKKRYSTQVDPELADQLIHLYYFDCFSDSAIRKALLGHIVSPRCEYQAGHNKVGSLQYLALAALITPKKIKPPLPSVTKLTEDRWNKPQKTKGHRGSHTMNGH
# UniProt P69722: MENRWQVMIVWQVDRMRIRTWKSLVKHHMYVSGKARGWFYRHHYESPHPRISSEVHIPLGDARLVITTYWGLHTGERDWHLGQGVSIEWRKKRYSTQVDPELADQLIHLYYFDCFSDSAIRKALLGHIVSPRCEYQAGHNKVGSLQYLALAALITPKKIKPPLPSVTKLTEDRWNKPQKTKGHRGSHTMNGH
# UniProt P69723: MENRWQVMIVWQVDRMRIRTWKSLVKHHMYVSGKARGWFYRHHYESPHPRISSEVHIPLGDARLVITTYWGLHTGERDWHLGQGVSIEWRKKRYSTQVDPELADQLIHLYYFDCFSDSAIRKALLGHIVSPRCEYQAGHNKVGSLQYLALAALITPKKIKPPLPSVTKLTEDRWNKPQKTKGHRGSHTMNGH
# UniProt Q9HC16: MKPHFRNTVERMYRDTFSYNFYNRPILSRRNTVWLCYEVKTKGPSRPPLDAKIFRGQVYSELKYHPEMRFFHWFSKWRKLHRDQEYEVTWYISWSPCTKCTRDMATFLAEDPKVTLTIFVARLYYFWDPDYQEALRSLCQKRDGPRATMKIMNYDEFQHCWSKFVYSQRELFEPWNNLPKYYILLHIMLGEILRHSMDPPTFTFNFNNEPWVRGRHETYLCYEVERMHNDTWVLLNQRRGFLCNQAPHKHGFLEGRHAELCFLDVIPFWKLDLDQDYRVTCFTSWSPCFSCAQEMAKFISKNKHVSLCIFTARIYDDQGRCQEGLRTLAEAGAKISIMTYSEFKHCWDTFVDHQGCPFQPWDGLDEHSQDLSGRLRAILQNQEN
# Target: Virion infectivity factor (Human immunodeficiency virus type 1 group M subtype B (isolate BH10)) + Virion infectivity factor (Human immunodeficiency virus type 1 group M subtype B (isolate BRU/LAI)) + Virion infectivity factor (Human immunodeficiency virus type 1 group M subtype B (isolate PCV12)) + Virion infectivity factor (Human immunodeficiency virus type 1 group M subtype B (isolate HXB2)) + DNA dC->dU-editing enzyme APOBEC-3G (Homo sapiens) (UniProt P69720+P69721+P69722+P69723+Q9HC16)
# Test: inhibitors of Vif binding to APOBEC3G peptide, primary screen, biochemical, TR-FRET, GST-Vif 1-94, biotin-A3G peptide, dose response retest (AID 1117319);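 note: Vif residues 1-94 fused to GST binding biotinylated APOBEC3G peptide 110-148; 0% = full assay without inhibitor and 100% = GST in place of GST-Vif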
# Conditions: active compounds read high
row,Structure (SMILES),inhibition
1,CN(C)C(=O)N1CCCC(C(=O)NCc2ccc(F)cc2Cl)C1 (configuration not stated),inconclusive: 55.9%
2,Cc1ccccc1S(=O)(=O)NNC(=O)C(=O)NNc1ccccn1,inconclusive: 47.1%
3,Cc1onc(-c2ccccc2Cl)c1C(=O)NCCN1CCOCC1,inconclusive: 38.8%
4,O=C1C2CC=C(Cl)CC2C(=O)N1c1ncn[nH]1 (configuration not stated),inconclusive: 34.6%
5,COc1ccc(C(=O)/C=C/c2cc(OC)c(O)c(OC)c2)c(F)c1,inconclusive: 37.1%
6,Cc1ccccc1C(=O)c1cccn1CC(=O)NCCN1CCN(c2cccc(C)c2C)CC1,inconclusive: 35.6%
7,O=S(=O)(Nc1ccc(N2CCOCC2)cc1)c1cccs1,inconclusive: 34.2%
8,CCOC(=O)C1=C(C)NC2=C(C(=O)c3ccccc32)C1c1ccc([N+](=O)[O-])o1 (configuration not stated),inconclusive: 42.6%
9,O=C(O)CCN1C(=O)/C(=C\c2ccc(-c3nc4ccccc4s3)o2)SC1=S,inactive: 32.3%
10,CC(C)c1ccc(Nc2nc(Cl)nc(NCc3ccco3)n2)cc1,inconclusive: 43.2%
11,COc1ccc(S(=O)(=O)n2nc(-c3cc(OC)c(OC)c(OC)c3)cc2N)cc1OC,inconclusive: 36.9%
12,COc1cccc(/C=N/n2nnnc2N)c1,inconclusive: 49%
13,COc1ccc(S(=O)(=O)N2CCCC(C(=O)NCc3ccncc3)C2)cc1 (configuration not stated),inconclusive: 27.6%
14,CCCCn1c(SCC(=O)c2ccccc2)nc2c1c(=O)[nH]c(=O)n2C,inconclusive: 52%
15,COc1cccc(C(=O)NNC(=O)Cc2cccs2)c1,inconclusive: 36.4%
16,CC1(C)CC(=O)C2=C(C1)N(c1ccccc1)C(N)=C(C#N)C2c1ccsc1 (configuration not stated),inconclusive: 59.1%
17,O=C(CSc1ccc(-c2nc3ccccc3[nH]2)cn1)Nc1ccc(S(=O)(=O)N2CCCC2)cc1,inactive: -5.26%
18,CCOc1cc(C2C(C#N)=C(N)OC(C)=C2C(C)=O)c(Br)c(Br)c1OC(C)C (configuration not stated),inconclusive: 33.3%
19,Cc1cc([N+](=O)[O-])nn1CC(=O)Nc1nccs1,inconclusive: 42.8%
20,CCOC(=O)C(CC)Sc1ccc2nnc(CCNS(=O)(=O)c3ccccc3)n2n1 (configuration not stated),inconclusive: 61.8%
21,Cc1ccc(N=c2c([N+](=O)[O-])nn(-c3ccc4c(c3)OCCO4)n2O)c(Cl)c1,inconclusive: 40.3%
22,CCN(CC)c1ccc(C(=S)NCc2ccccc2)cc1,inactive: 7.25%

row,Structure (SMILES),inhibition
1,Nc1cc(-c2cccc(F)c2)nn1S(=O)(=O)c1cccc2nsnc12,inconclusive: 44.3%
2,Cn1cc(Cl)c(C(=O)NNC(=S)NC2CCCCC2)n1,inconclusive: 49.4%
3,COc1ccc(CNC(=S)Nc2ccccc2-c2ccccc2)cc1,inconclusive: 41.3%
4,COc1cccc(-n2c(SCC(=O)Nc3sc4c(c3C(N)=O)CCC4)nc3ccccc3c2=O)c1,inconclusive: 33.5%
5,COc1ccc(NC(=O)CC2C(=O)N(C)C(=S)N2Cc2ccc3c(c2)OCO3)cc1 (configuration not stated),inconclusive: 35.6%
6,Fc1ccc(NC(=S)N2CCCc3ccccc32)cc1,inconclusive: 43.1%
7,COC(=O)c1ccccc1C(=O)N1CCOCCN(C(=O)c2ccccc2C(=O)OC)CCOCC1,inconclusive: 55.7%
8,COc1ccc(CCN2C(=O)CC(Nc3ccc(N4CCOCC4)cc3)C2=O)cc1OC (configuration not stated),inconclusive: 79.2%
9,Cc1cccc(C)c1NC(=O)C1CCCNC1 (configuration not stated),inconclusive: 54.5%
10,O=C(CNC(=O)c1ccccc1)N/N=C/c1ccc([N+](=O)[O-])s1,inconclusive: 37%
11,O=C(NNc1nc(-c2ccccc2)cs1)c1ccccc1,inconclusive: 43.9%
12,Cc1nc2nc(C)c(CCC(=O)N3CCN(c4ccccn4)CC3)c(C)n2n1,inactive: 8.31%
13,O=C1CCN(S(=O)(=O)c2ccc(Cl)cc2)N1,inconclusive: 37.2%
14,CC(C)NC(=O)c1onc(CSc2cccc(F)c2)c1C(=O)O,inconclusive: 50.1%
15,O=S(NCc1ccccc1)C12CC3CC(CC(C3)C1)C2 (configuration not stated),inconclusive: 50.1%
16,CC(=O)c1c(C)[nH]c(C(=O)NCc2ccc(F)cc2)c1C,inactive: -3.52%
17,CNS(=O)(=O)c1ccc(NC(=O)c2ccc(Cl)cc2Cl)cc1,inconclusive: 62.6%
18,Cc1ccc(C)c(/C(O)=C2/C(=O)C(=O)N(CCN3CCOCC3)C2c2ccc(C)o2)c1 (configuration not stated),inconclusive: 24.6%
19,Cn1c(SCC(=O)NCc2ccco2)nnc1-c1ccccc1,inconclusive: 33.4%
20,CCN1CCCC1CNCC(=O)Nc1ccc(OC(F)(F)F)cc1 (configuration not stated),inconclusive: 55.9%
21,Cc1ccccc1N1C(=O)C(Cl)=C(N2CCCCCC2)C1=O,inactive: 4.9%
22,COC(=O)c1ccccc1NC(=O)CNc1cc(OC)c(OC)cc1C,inconclusive: 47.3%

# Ordered by formula weight (descending): some entries from above.
row,Structure (SMILES),inhibition
20,CCOC(=O)C(CC)Sc1ccc2nnc(CCNS(=O)(=O)c3ccccc3)n2n1 (configuration not stated),inconclusive: 61.8%
16,CC1(C)CC(=O)C2=C(C1)N(c1ccccc1)C(N)=C(C#N)C2c1ccsc1 (configuration not stated),inconclusive: 59.1%
15,COc1cccc(C(=O)NNC(=O)Cc2cccs2)c1,inconclusive: 36.4%

# In a second layout: 2 of the compounds above
row	Structure (SMILES)	inhibition
20	CCOC(=O)C(CC)Sc1ccc2nnc(CCNS(=O)(=O)c3ccccc3)n2n1 (configuration not stated)	inconclusive: 61.8%
21	Cc1ccc(N=c2c([N+](=O)[O-])nn(-c3ccc4c(c3)OCCO4)n2O)c(Cl)c1	inconclusive: 40.3%

# The list goes on.

row,Structure (SMILES),inhibition
1,c1ccc(CCN2CCN(c3ncnc4c3cnn4-c3ccccc3)CC2)cc1,inconclusive: 18.9%
2,CCOC(=O)C1(CCOc2ccccc2)CCN(Cc2ccc(-n3cccn3)cc2)CC1,inconclusive: 37.7%
3,Cc1cc(NC(=S)N(CCCN2CCN(C)CC2)Cc2ccco2)ccc1Cl,inconclusive: 53.4%
4,O=C(c1ccc(CSc2nc3ccncc3[nH]2)cc1)N1CCCCCC1,inconclusive: 52.2%
5,O=C(CCCC(=O)OCC(=O)c1ccc(Cl)cc1Cl)Nc1cc(C(F)(F)F)ccc1Cl,inconclusive: 44.8%
6,CC(=O)Nc1nc(Cn2nnc(-c3ccc4c(c3)OCO4)n2)nc(N(C)C)n1,inconclusive: 44.4%
7,O=C(Cn1c(=O)[nH]n(-c2ccccc2)c1=O)N1CCCc2ccccc21,inconclusive: 57.7%
8,Cn1cccc1C1NC(=O)c2c(sc3c2CCC(C(C)(C)C)C3)N1 (configuration not stated),inconclusive: 40.3%
9,COc1ccc2[nH]c(=O)c(CNc3ccccc3C)cc2c1,inconclusive: 50.9%
10,COc1ccc(CNc2nc(NCc3ccc(OC)c(OC)c3)n(C(=O)c3cccs3)n2)cc1OC,inactive: 13.3%
11,C/C(CC(=O)Nc1cccc(Cl)c1C)=N\NC(=O)Cc1csc(N)n1,inconclusive: 52.8%
12,COc1ccc(/C=N/NC(=O)c2ccc(=O)[nH]n2)cc1OC,inconclusive: 38.9%
13,Cn1cccc1/C=N/NC(=O)c1ccn[nH]1,inconclusive: 38.6%
14,O=C1C(=C2CCCCC2)SC(=S)N1Cc1ccco1,inconclusive: 36.7%
15,Cc1cccc(N2CCN(C3=NC(=O)C(Cc4ccccc4)S3)CC2)c1 (configuration not stated),inactive: 14.4%
16,O=C(Nc1ccccc1N1CCOCC1)C1CCN(S(=O)(=O)c2ccc(Cl)cc2)CC1,inconclusive: 53.2%
17,Cc1ccc(S(=O)(=O)c2nnn3c2nc(N2CCOCC2)c2ccccc23)c(C)c1,inconclusive: 36%
18,CCOC(=O)c1cc(=O)c2ccc(OCC(=O)Nc3ccc(F)cc3)cc2o1,inconclusive: 39.5%
19,CCc1cccc(NC(=O)Nc2ccc3c(c2)OCO3)c1,inconclusive: 62.5%
20,O=C(c1ccc2c(c1)OCCO2)N1CCN(c2ccc([N+](=O)[O-])cc2)CC1,inconclusive: 40.1%
21,COc1ccc(OC)c(S(=O)(=O)n2ccc(C)n2)c1,inconclusive: 61.9%
22,CNC(=O)/C(=C/c1ccc2c(c1)OCO2)NC(=O)c1ccc(Br)cc1,inconclusive: 34.9%

row,Structure (SMILES),inhibition
1,Cc1ccc(C(=O)CSc2nnc(COc3cccc4cccnc34)o2)cc1,inconclusive: 57.5%
2,COc1ccc(-c2cc(CNS(=O)(=O)c3ccccc3)on2)cc1,inconclusive: 45.1%
3,COc1ccc(/C=N/NC(=O)c2nn(-c3ccc(Cl)cc3)c(=O)c3c(N)scc23)cc1,inconclusive: 42.8%
4,COc1cc2cc(CN(Cc3cccs3)C(=S)Nc3cccc(C)c3)c(=O)[nH]c2cc1OC,inconclusive: 51%
5,COCC(=O)n1nc(-c2ccccc2)nc1NCc1ccc(N(C)C)cc1,inactive: -5.23%
6,N#C/C(=C\c1ccc(-c2ccc(C(=O)O)cc2)o1)C(=O)Nc1ccc(F)cc1,inactive: 15.6%
7,COc1cnc(N(C)C)nc1Sc1ccc(Cl)cc1,inconclusive: 45.4%
8,COC(=O)c1c(C(=O)OC)c2cccc3cc(-c4ccccc4)c4ccc1c4n32,inconclusive: 52.8%
9,CCN(c1ccccc1)S(=O)(=O)c1ccc(OC)c(NC(=O)c2cccs2)c1,inconclusive: 39.2%
10,CC(=O)Oc1ccc2c(=O)c(-c3nc4ccccc4s3)coc2c1,inconclusive: 39.9%
11,CCOC(=O)N1CCN(C(=O)c2ccc3c(SCC(=O)O)c4c(nc3c2)CCCC4)CC1,inconclusive: 59.3%
12,Cc1ccc([N+](=O)[O-])c2cccnc12,inactive: 1.02%
13,CCOc1ccccc1-c1cc(-c2n[nH]c(=S)n2CC)c2ccccc2n1,inconclusive: 44.3%
14,C#CCOCCOCCOCCNc1nc(N2CCOCC2)nc(N2CCN(C(=O)[C@H]([C@@H](C)O)n3cc(CCCCN)nn3)CC2)n1,inconclusive: 56.1%
15,COc1cc(OC)c2c(c1)S(=O)(=O)C(c1ccccc1)=C2N,inconclusive: 61.3%
16,Cc1nc2nc(Cc3ccccc3)nn2c(C)c1Cl,inconclusive: 22.1%
17,FC(F)(F)c1cc(-c2ccco2)nc(NCc2ccc(Cl)cc2)n1,inactive: 3.96%
18,COc1cc(/C=N/N(C)S(=O)(=O)c2ccc(C)cc2)cc([N+](=O)[O-])c1O,inconclusive: 39.8%
19,COc1ccc(N2CC(O)=C(c3nc(-c4ccccc4)cs3)C2=N)cc1,inconclusive: 56.3%
20,COc1c(OC2OC(C(=O)O)C(O)C(O)C2O)cc(O)c2c(=O)cc(-c3ccccc3)oc12 (configuration not stated),inconclusive: 56%
21,O=C(O)CCn1c(-c2ccccc2)cc2c1CCCC2=O,inconclusive: 58.2%

# Source: PubChem BioAssay AID1117319 (Southern Research Institute, 2015)
